Article PMC3473359, “Formation of a heterooctameric complex between aspartate α-decarboxylase and its cognate activating factor, PanZ, is CoA-dependent” (Biochemical and Biophysical Research Communications, 2012)
No constants are given. Whether binding was seen depends on the method and setting. Sequences can lack the tags named with a protein.

Molecular target: His-tagged PanZ (E. coli) (UniProt P37613)
Experiment: SEC; Hi-Load 26/60 Superdex 75; 50 mM Tris-HCl, 100 mM NaCl, 0.1 mM DTT, pH 7.4; elution volumes of each protein alone; both purified

B1: His-tagged PanZ (protein, UniProt P37613 1-127)
chain: MKLTIIRLEKFSDQDRIDLQKIWPEYSPSSLQVDDNHRIYAARFNERLLAAVRVTLSGTEGALDSLRVREVTRRRGVGQYLLEEVLRNNPGVSCWWMADAGVEDRGVMTAFMQALGFTAQQGGWEKC
Q: For B1, which binding is on record?
A: no binding
